No constants are given. Whether binding was seen depends on the method and setting. In cells and extracts the contact can be indirect. Binding can be weak; no strength is given.
Target: FLAG:RGA5 (Oryza sativa subsp. japonica, Sasanishiki) (UniProt F7J0N2)
Assay: co-IP

Amino acid sequences for entries named in this document (tags omitted). A change or cut given only in a name is not applied to a line headed by its entry.
UniProt F7J0N2: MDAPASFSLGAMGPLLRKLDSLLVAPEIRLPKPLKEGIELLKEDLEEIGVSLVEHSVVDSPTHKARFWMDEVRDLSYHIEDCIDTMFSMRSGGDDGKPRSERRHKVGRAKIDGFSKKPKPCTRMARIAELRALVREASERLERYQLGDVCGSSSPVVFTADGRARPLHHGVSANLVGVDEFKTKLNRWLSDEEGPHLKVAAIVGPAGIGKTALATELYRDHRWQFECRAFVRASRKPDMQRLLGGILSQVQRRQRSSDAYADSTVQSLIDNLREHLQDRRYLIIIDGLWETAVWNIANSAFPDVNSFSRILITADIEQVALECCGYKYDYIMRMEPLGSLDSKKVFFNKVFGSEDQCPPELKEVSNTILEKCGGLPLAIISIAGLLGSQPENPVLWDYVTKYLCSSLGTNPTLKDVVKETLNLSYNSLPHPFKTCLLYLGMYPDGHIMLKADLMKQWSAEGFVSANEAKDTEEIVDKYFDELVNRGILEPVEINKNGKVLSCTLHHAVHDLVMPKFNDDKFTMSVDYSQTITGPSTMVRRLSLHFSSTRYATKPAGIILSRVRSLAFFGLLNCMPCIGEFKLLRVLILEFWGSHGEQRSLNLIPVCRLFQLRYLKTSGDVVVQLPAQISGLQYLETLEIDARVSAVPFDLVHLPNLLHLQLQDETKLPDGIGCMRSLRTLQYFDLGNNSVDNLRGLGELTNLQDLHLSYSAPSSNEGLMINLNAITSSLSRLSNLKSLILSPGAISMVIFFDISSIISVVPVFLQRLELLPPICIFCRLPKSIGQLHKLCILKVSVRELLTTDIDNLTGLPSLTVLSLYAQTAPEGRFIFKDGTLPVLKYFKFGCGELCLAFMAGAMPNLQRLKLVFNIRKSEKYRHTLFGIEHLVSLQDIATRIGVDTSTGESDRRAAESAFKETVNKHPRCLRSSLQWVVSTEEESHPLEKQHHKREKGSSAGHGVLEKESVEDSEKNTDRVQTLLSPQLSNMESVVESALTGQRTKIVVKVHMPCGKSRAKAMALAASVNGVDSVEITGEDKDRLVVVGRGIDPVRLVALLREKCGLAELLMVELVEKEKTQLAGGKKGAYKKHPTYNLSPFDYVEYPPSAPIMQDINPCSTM
UniProt F7J0M4: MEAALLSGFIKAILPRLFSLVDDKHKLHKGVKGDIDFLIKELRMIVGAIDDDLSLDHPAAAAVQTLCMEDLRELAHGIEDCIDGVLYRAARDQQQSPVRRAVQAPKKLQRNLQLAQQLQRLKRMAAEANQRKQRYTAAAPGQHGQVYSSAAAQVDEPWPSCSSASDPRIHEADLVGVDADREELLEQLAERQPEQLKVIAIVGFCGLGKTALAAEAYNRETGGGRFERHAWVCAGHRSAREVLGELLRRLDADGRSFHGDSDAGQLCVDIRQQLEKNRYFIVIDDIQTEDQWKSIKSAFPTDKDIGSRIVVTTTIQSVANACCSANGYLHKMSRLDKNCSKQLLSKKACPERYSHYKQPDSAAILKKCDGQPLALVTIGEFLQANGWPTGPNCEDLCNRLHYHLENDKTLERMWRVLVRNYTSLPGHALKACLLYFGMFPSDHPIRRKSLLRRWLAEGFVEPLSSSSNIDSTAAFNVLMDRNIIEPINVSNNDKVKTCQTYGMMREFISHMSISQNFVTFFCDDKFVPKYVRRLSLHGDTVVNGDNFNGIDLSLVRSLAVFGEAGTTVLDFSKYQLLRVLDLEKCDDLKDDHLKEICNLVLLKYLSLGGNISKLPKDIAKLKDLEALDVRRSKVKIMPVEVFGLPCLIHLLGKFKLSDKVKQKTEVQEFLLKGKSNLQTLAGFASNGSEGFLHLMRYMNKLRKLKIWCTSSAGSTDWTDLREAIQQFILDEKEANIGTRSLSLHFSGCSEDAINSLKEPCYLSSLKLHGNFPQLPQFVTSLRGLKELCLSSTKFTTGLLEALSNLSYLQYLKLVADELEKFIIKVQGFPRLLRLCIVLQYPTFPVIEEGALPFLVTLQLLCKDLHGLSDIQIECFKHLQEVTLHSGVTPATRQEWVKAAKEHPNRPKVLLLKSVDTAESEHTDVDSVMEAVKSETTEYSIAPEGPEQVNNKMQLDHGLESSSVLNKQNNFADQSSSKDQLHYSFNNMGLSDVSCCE

RGA4 (MHD mutant):HA (from UniProt F7J0M4) (receptor)
binding: binds

Reference: article doi:10.1101/2021.09.01.458560
